Test results as given in PubChem BioAssay AID1117319 (Southern Research Institute, 2015).
The whole screen tested about 260,000 compounds, of which about 1,500 (0.58%) were called active. The inconclusive results got no clear call from the source; some entries with a clear call stand among them for comparison.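 Rule for the calls: active = inhibition above a set limit at one or more doses, reproduced on every date tested; inconclusive = results disagree between test dates, or hit never tested in dose response; inactive = the rest.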

Amino acid sequences for entries named in this document (tags omitted). A change or cut given only in a name is not applied to a line headed by its entry.
UniProt P69720: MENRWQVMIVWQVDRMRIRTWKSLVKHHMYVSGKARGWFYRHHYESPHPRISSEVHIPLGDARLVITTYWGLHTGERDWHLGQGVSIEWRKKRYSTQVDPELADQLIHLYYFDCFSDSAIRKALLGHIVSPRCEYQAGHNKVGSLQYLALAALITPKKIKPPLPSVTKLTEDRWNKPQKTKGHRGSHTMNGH
UniProt P69721: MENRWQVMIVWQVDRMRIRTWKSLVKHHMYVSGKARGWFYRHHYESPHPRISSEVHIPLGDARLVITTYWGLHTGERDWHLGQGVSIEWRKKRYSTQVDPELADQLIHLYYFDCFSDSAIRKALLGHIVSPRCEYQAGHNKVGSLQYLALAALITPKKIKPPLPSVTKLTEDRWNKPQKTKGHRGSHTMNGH
UniProt P69722: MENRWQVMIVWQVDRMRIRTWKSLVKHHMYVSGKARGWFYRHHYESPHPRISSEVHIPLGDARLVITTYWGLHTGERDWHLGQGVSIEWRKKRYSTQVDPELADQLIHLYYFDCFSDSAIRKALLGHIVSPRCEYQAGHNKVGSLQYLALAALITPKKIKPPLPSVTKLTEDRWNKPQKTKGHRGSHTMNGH
UniProt P69723: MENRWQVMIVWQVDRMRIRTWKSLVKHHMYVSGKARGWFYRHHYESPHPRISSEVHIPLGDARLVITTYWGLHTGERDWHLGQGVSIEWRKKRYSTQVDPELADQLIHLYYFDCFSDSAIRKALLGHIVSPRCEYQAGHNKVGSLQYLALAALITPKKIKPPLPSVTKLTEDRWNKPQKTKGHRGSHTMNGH
UniProt Q9HC16: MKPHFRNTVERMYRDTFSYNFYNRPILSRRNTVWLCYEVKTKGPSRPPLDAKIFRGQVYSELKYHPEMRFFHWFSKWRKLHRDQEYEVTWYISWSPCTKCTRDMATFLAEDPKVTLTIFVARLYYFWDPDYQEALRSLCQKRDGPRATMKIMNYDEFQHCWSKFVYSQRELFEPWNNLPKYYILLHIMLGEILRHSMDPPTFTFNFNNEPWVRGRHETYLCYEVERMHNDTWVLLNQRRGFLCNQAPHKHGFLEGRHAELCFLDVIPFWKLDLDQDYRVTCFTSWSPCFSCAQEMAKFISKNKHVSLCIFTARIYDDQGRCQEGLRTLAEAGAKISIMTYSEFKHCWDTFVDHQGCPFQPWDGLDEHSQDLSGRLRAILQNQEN

The compounds below were run against Virion infectivity factor (Human immunodeficiency virus type 1 group M subtype B (isolate BH10)) + Virion infectivity factor (Human immunodeficiency virus type 1 group M subtype B (isolate BRU/LAI)) + Virion infectivity factor (Human immunodeficiency virus type 1 group M subtype B (isolate PCV12)) + Virion infectivity factor (Human immunodeficiency virus type 1 group M subtype B (isolate HXB2)) + DNA dC->dU-editing enzyme APOBEC-3G (Homo sapiens) (UniProt P69720+P69721+P69722+P69723+Q9HC16) (assay: inhibitors of Vif binding to APOBEC3G peptide, primary screen, biochemical, TR-FRET, GST-Vif 1-94, biotin-A3G peptide, dose response retest (AID 1117319;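 note: Vif residues 1-94 fused to GST binding biotinylated APOBEC3G peptide 110-148; 0% = full assay without inhibitor and 100% = GST in place of GST-Vif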)). Conditions: stronger effect = higher value.
`CN1/C(=C\C(=O)COC(=O)c2ccccc2O)C(C)(C)c2ccccc21` was tested, and the inhibition was inactive: -8.33%. In the case of `COc1ccc(N2CCN(C(=O)CSc3ccccc3)CC2)cc1`, the inhibition is reported as inactive: 30.3%. With `CCN1CCCC1CNCc1ccc(Cl)cc1Cl` (centres undefined) the inhibition was inconclusive: 33.2%. For `FC(F)(F)c1cnc(COc2cc(Cl)cc(Cl)c2)c(Cl)c1`, the inhibition was inconclusive: 48.7%. In the case of `CCN(CC)CCCN(Cc1cc2cc(OC)ccc2[nH]c1=O)C(=O)Nc1ccc(F)cc1`, the inhibition is reported as inconclusive: 33.5%. With `O=C1CCC(C(=O)OCc2cc(Cl)ccc2OC(F)F)N1` (centres undefined) the inhibition was inconclusive: 37.1%. `COc1cc(Cl)c(C)cc1NC(=O)CSC` was tested, and the inhibition was inconclusive: 3.65%. `O=C(NCc1cccnc1)NC1CC(=O)N(c2ccc3c(c2)OCCO3)C1` (centres undefined) was tested, and the inhibition was inconclusive: 44.1%. In the case of `O=C1C(Cl)=C(NC(=O)c2ccccc2)C(=O)C(Cl)=C1NC(=O)c1ccccc1`, the inhibition is reported as inactive: 20.2%. For `CCN1CCN(C(=O)c2cc(-c3cccnc3)nc3ccc(Br)cc23)CC1`, the inhibition was inconclusive: 38.6%. `CC(C)(C)NC(=O)CSc1nnc(NC(=O)CCn2cnc3ccccc3c2=O)s1` was tested, and the inhibition was inconclusive: 53.4%. With `Cc1ccnc(N2CCC(C(=O)Nc3cccc(C(F)(F)F)c3)CC2)n1` the inhibition was inconclusive: 37.1%. For `O=C(CN1CCN(S(=O)(=O)/C=C/c2ccccc2)CC1)NC(=O)NCc1ccco1`, the inhibition was inconclusive: 52.3%. For `COc1cc(C2Nc3ccccc3C(=O)N2c2ccccc2OC)ccc1O` (centres undefined), the inhibition was inactive: -3.51%. In the case of `O=C1CCCc2nc3nc4ccccc4n3cc21`, the inhibition is reported as inconclusive: 40.8%. `O=C(O)Cc1ccccc1C(=O)O` was tested, and the inhibition was inactive: 0.17%. For `O=C(CCc1n[nH]c(=O)[nH]c1=O)N/N=C/c1ccco1`, the inhibition was inconclusive: 59.2%. In the case of `Cc1cccc(OCCCOc2cccc3cccnc23)c1C`, the inhibition is reported as inconclusive: 33.4%. For `COc1ccc(NC(=O)CC(C)CC(=O)NCc2ccccc2)c(OC)c1` (centres undefined), the inhibition was inconclusive: 53.5%. In the case of `COCCn1c(SCC(=O)Nc2ccc(F)cc2)nc2c([nH]c3ccccc32)c1=O`, the inhibition is reported as inconclusive: 35.5%. `COC(=O)c1c(NC(=O)c2nc3nc(C)cc(C(F)F)n3n2)sc2c1CCC2` was tested, and the inhibition was inactive: -2.56%. In the case of `OC1(c2ccc(Cl)cc2)CCN(Cc2cn[nH]c2-c2ccccc2)CC1`, the inhibition is reported as inconclusive: 41.2%. In the case of `CCN=C1SC(CC(N)=O)C(=O)N1CC` (centres undefined), the inhibition is reported as inactive: 9.83%. For `COC(=O)c1sc2nc(-c3ccco3)ccc2c1N`, the inhibition was inconclusive: 44.5%. With `Cc1ccc(S(=O)(=O)N/N=C/c2cccc(OC3CSC3)c2)cc1` the inhibition was inconclusive: 57.4%. With `O=C(CCNc1ccc(F)c(Cl)c1)c1ccco1` the inhibition was inconclusive: 34.1%. With `CCN(CC)CCNC(=O)c1cc([N+](=O)[O-])c(N(C)C)cc1OC` the inhibition was inactive: 12.4%. For `CCOCCn1c(-c2ccc(OC)cc2)nc2ccccc21`, the inhibition was inconclusive: 43.6%. In the case of `Cc1ccc2nc(SCC(=O)NCc3ccco3)[nH]c2c1`, the inhibition is reported as inconclusive: 53%. For `CCc1nnc(NC(=O)c2ccc(-c3cc(C(F)(F)F)ccc3Cl)o2)s1`, the inhibition was inconclusive: 33.8%. `COc1cc2c(cc1OC)-c1cc3ccc4c(c3c[n+]1CC2)OCO4` was tested, and the inhibition was inconclusive: 42.5%. With `COc1cccc(C(=O)N(CN2CCCC2=O)c2cc(C)on2)c1` the inhibition was inconclusive: 40.1%. `COc1cc(C2OCC3C(c4ccc(OC5OC(CO)C(O)C(O)C5O)c(OC)c4)OCC23)ccc1O` (centres undefined) was tested, and the inhibition was inconclusive: 65%. For `O=C1c2cccnc2C(=O)N1C1CCCCC1`, the inhibition was inconclusive: 35.3%. In the case of `O=C(NCCc1ccccc1)c1cc(-c2ccco2)on1`, the inhibition is reported as inactive: 25.6%. For `CC(C)(C)c1ccc(C(=O)N2CCN(c3ncccn3)CC2)cc1`, the inhibition was inactive: -3.51%. For `O=C(NC(=S)Nc1ccc(N2CCOCC2)cc1)c1ccc2c(c1)OCCO2`, the inhibition was inconclusive: 63.4%. `CCOC(=O)c1c(C)[nH]c(NC(=O)Nc2c(C)n(C)n(-c3ccccc3)c2=O)c1C` was tested, and the inhibition was inconclusive: 35.8%. For `CCCC(=O)NC(=S)Nc1cccc(Cl)c1N1CCCCC1`, the inhibition was inconclusive: 60%. For `CCCCCCOc1ccc(N2C(=O)CC(NCCc3ccc(S(N)(=O)=O)cc3)C2=O)cc1` (centres undefined), the inhibition was inconclusive: 52.6%. In the case of `Cc1cc2ccccc2c(=O)n1CC(=O)NCC(=O)N1CCN(c2ccccc2)CC1`, the inhibition is reported as inconclusive: 41.8%. `O=c1[nH]c(C(Cl)Cl)nc2sc3c(c12)CCN(Cc1ccccc1)C3` was tested, and the inhibition was inconclusive: 43.9%. For `CCOC(=O)C(Cc1c(F)cccc1F)(NC(C)=O)C(=O)OCC`, the inhibition was inconclusive: 46%. In the case of `CCCn1c(C)cc(-c2csc(N)n2)c1C`, the inhibition is reported as inactive: 11.8%. For `O=C(CN1CCN(C(=O)c2c(F)cccc2F)CC1)Nc1ccccc1F`, the inhibition was inconclusive: 62.7%. `COc1ccc(CNC(=O)CSc2nc3nc(C)cc(C)n3n2)cc1` was tested, and the inhibition was inconclusive: 37.6%. In the case of `O=C(Nc1ccc(NS(=O)(=O)c2ccccc2)cc1)c1ccccc1Cl`, the inhibition is reported as inactive: 9.4%. For `CCC(=O)Nc1ccc(C(=O)N2CCN(C(=O)c3ccco3)CC2)cc1`, the inhibition was inconclusive: 49.8%. With `COc1ccccc1NS(=O)(=O)c1cc(NC(=O)c2ccc(=O)[nH]c2)ccc1N1CCOCC1` the inhibition was inconclusive: 33.4%. In the case of `NNC(=O)c1nc[nH]c1C(=O)Nc1ccccn1`, the inhibition is reported as inconclusive: 55.2%. In the case of `N#Cc1c2c(c[nH]c1=O)CCN2Cc1ccccc1`, the inhibition is reported as inconclusive: 45.3%. `CC(C)CC(=O)NC(=S)Nc1ccc(Cl)cn1` was tested, and the inhibition was inconclusive: 47%. In the case of `COc1cccc(NC(=O)CN(c2ccc([N+](=O)[O-])cc2)S(=O)(=O)c2ccccc2)c1`, the inhibition is reported as inconclusive: 41.9%. `Cc1nc2ccccn2c1P(=O)(N1CCCCC1)N1CCCCC1` was tested, and the inhibition was inconclusive: 34.9%. For `O=C(COc1ccc2c(c1)CCC2)N1CCN(c2ccc(F)cc2)CC1`, the inhibition was inactive: 4.96%. `[O-][n+]1onc2c1CCC(=N/O)/C2=N\Nc1ccccc1` was tested, and the inhibition was inconclusive: 53.1%. `Cc1cccc(/C=N\NC(=O)c2csnn2)c1` was tested, and the inhibition was inconclusive: 24.1%. In the case of `COc1ccc2c(CC(=O)Nc3ccc(OC)nc3)coc2c1`, the inhibition is reported as inconclusive: 49.9%. With `CC(C)(C)c1cc(NC(=O)c2cccc([N+](=O)[O-])c2)no1` the inhibition was inconclusive: 44%.
